PubChem BioAssay AID2685 (National Center for Advancing Translational Sciences (NCATS), 2010)
The other results are listed elsewhere or left out. Shown are side measurements of this screen, not its main read-out; they come without a call. Compounds called inactive in the main read-out are mostly missing here. Words in brackets tell the shape of the fitted curve; partial curves, single points and poor fits give uncertain potencies.

Experiment: qHTS Assay for Lipid Storage Modulators in Drosophila S3 Cells;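 on cell number change: cells counted by Cell Tracker Red CMTPX staining in the red channel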
Conditions: BODIPY lipid droplet fluorescence, 18-24 h; for cell number change: measured here: cell count max response, cells fed with added oleic acid
In short: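 Drosophila S3 cells got compounds at several concentrations plus oleic acid (400 uM solution). Laser-scanning cytometry with 488 nm excitation read lipid droplets at 500-530 nm and cells at 575-640 nm. Percent activity was relative to 20 uM Triacsin C.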

[1] = measured here: lipid fluorescence (Fed channel) AC50, cells fed with added oleic acid
[2] = measured here: cell number channel AC50, cells fed with added oleic acid

Compound	cell number change [%]	AC50 [1]	AC50 [2]
O=c1cc(-c2ccccc2Cl)oc2c(NS(=O)(=O)c3cccs3)ccc(O)c12	9.84	0.92 µM [rising, full curve, poor fit]	
CCCN(CCC)CCCNC(=O)C1c2cc(OC)c(OC)cc2C(=O)N(C)C1c1cccnc1 (centres undefined)	11	6.51 µM [falling, single point]	3.66 µM [falling, single point]
CSCCC(NS(=O)(=O)c1ccc(C)cc1)C(=O)Nc1ccc(C)cn1 (centres undefined)	-99.4	4.11 µM [rising, partial curve]	29.1 µM [falling, single point]
CCn1c(CNC(=O)c2cccs2)n[nH]c1=S	12.8	18.4 µM [rising, single point]	
Cc1cc2oc(C(=O)N(Cc3ccco3)C3CCS(=O)(=O)C3)cc(=O)c2cc1Cl (centres undefined)		0.58 µM [falling, single point]	0.461 µM [falling, single point]
Cc1ccc(CNC(=O)C2CN(S(C)(=O)=O)c3cc(Cl)ccc3O2)cc1 (centres undefined)	-28.5	6.51 µM [falling, single point]	
COc1ccc(-c2noc(-c3ccco3)n2)cc1OC	-16.6	0.00651 µM [rising, full curve, poor fit]	
CN1C(=O)CC(N2CCN(c3ccc(Cl)c(Cl)c3)CC2)C1=O (centres undefined)		6.51 µM [falling, single point]	
CCCn1c(N)c(C(=O)CSc2nnc3n2CCCCC3)c(=O)[nH]c1=O	16.6	9.2 µM [rising, partial curve, poor fit]	
CCC(=O)N1CCN(c2ccc(NC(=O)c3ccc(C#N)cc3F)cc2Cl)CC1	3.73		3.26 µM [rising, partial curve]
CCc1ccc(-c2cc(C(=O)NN3CCOCC3)c3ccccc3n2)cc1	0.388	0.366 µM [rising, partial curve]	
Cc1ccc(-n2nnnc2SCC(=O)Nc2ccccc2N2CCCCC2)cc1C	-27.4	16.4 µM [falling, partial curve]	
COC(=O)c1cccc2c1-c1ccccc1/C2=N/O	-58.9	18.4 µM [falling, single point]	29.1 µM [falling, single point]
CCCNC(=O)NC(=O)CSc1nnc(C)n1N	-31.9		0.0058 µM [falling, full curve, poor fit]
CCCOc1ccc(/C=N/Nc2cc(N3CCOCC3)ncn2)c(O)c1	-23.9		
CCn1cc(C(=O)NCCN(CC(C)C)CC(C)C)c(=O)c2cc(S(=O)(=O)N3CCOCC3)ccc21		9.2 µM [falling, partial curve]	
CN(C)S(=O)(=O)c1ccc(NC(=O)COc2cccc3c2OC(C)(C)C3)cc1	71.9		29.1 µM [rising, single point]
COc1ccc(NC(=S)N/N=C2/CCCc3c(C)cc(C)cc32)cc1	43.9	0.651 µM [rising, full curve]	0.411 µM [rising, full curve]
Cc1ccc(CN2CCc3c(OCC(=O)Nc4cc(C)ccc4C)cccc3C2=O)cc1	8.31		
Cn1c(SCC(=O)c2ccc3c(c2)OCO3)nnc1-c1ccccn1	-13.4	1.46 µM [rising, partial curve, poor fit]	

Compound	cell number change [%]	AC50 [1]	AC50 [2]
CCC(C)(C)n1nnnc1C(c1cc2cc(OC)c(OC)cc2[nH]c1=O)N1CCc2ccccc21 (centres undefined)	-4.27		
CCOc1ccccc1NC(=O)Cn1nnc(C(=O)Nc2ccccc2Cl)c1N			0.326 µM [rising, partial curve, poor fit]
CC(=O)Nc1ccc(S(=O)(=O)NCC2CCC(C(=O)NCCC(C)C)CC2)cc1 (centres undefined)	35.1		0.116 µM [rising, full curve, poor fit]
Cc1nn(Cc2c(F)c(F)c(F)c(F)c2F)c(C)c1NC(=O)c1nn(C)c(C)c1Br	39.7	2.59 µM [rising, full curve]	7.31 µM [rising, partial curve]
O=C(c1ccccc1)N1CCN(CC(O)COCC2CC=CCC2)CC1 (centres undefined)	-0.807	29.1 µM [rising, single point]	
COc1ccc(Cl)cc1N(CC(=O)NCC(C)C)S(=O)(=O)c1ccc(C)c([N+](=O)[O-])c1	4.49	0.103 µM [falling, single point]	
COc1ccc(/C=C2\SC(=S)N(CCC(=O)Nc3ccc(C(=O)O)cc3)C2=O)cc1	-13.9	16.4 µM [falling, single point]	
FC(F)Sc1nc2ccccc2[nH]1	-3.98		
Oc1ccc(/C=N/NC2=NCCCCC2)cc1		14.6 µM [falling, partial curve]	
COc1ccc(C(=O)N2CCN(C)C(C)C2)cc1OC1CCN(C(C)=O)CC1 (centres undefined)	3.52		2.59 µM [rising, partial curve, poor fit]
O=c1cc(CN2CCCc3ccccc32)nc2sccn12	78.4	16.4 µM [rising, partial curve]	29.1 µM [rising, single point]
CC(C)(C)c1ccc(COn2ccnc2)cc1	-33.8		29.1 µM [falling, single point]
Cc1ccc(S(=O)(=O)ON2C(=O)c3ccccc3C2=O)c(C)c1	-38.1	14.6 µM [falling, partial curve]	20.6 µM [falling, single point]
COc1ccc(Cl)cc1NC(=S)N1CCCC1	6.3	0.326 µM [falling, partial curve, poor fit]	0.291 µM [falling, single point]
CC(C)CC(C(=O)OCC(=O)Nc1ncc(Cl)cc1Cl)N1C(=O)c2ccccc2C1=O (centres undefined)	-34.5		13 µM [falling, partial curve]
CCCc1[nH]nc2c1C(c1ccncc1)C(C#N)=C(N)O2 (centres undefined)	-10.9	20.6 µM [falling, single point]	
O=C(Cc1ccc(Cl)cc1)Nc1ccncc1	-50.6	2.91 µM [falling, partial curve]	2.31 µM [falling, full curve]
O=C(CCSCCc1ccccn1)Nc1ccc(Br)cn1	16.1	3.66 µM [rising, single point]	
CCN(CC)CCCN(Cc1cc2cc(OC)ccc2[nH]c1=O)C(=O)Nc1ccccc1	9.44	13 µM [rising, partial curve]	
CN1CCN(S(=O)(=O)c2cccc(C(=O)Oc3cccc(Br)c3)c2)CC1	-88		23.1 µM [falling, partial curve]

Looked up above.
CCOc1ccccc1NC(=O)Cn1nnc(C(=O)Nc2ccccc2Cl)c1N – AC50 [2]: 0.326 µM [rising, partial curve, poor fit]
CCCc1[nH]nc2c1C(c1ccncc1)C(C#N)=C(N)O2 (centres undefined) – AC50 [1]: 20.6 µM [falling, single point]
CN1CCN(S(=O)(=O)c2cccc(C(=O)Oc3cccc(Br)c3)c2)CC1 – cell number change [%]: -88
COc1ccc(Cl)cc1NC(=S)N1CCCC1 – cell number change [%]: 6.3

Next structures

Compound	cell number change [%]	AC50 [1]	AC50 [2]
O=C(COC(=O)c1cc(-c2ccco2)nc2ccccc12)NCc1ccccc1	-13.6	0.58 µM [rising, full curve]	
Cc1cc(C(=O)CN2C(=O)NC3(CCCCCC3)C2=O)c(C)n1C	1.61		
O=C(O)/C=C/C(=O)Nc1ccccc1C(=O)Nc1ccccc1	18.9		
CCCCOc1ccccc1C(=O)NCC(=O)O		0.184 µM [falling, full curve, poor fit]	0.206 µM [falling, full curve]
CCC(C)NC(=O)C1CC(c2ccc(OC)cc2)=NO1 (centres undefined)	-27.3		
CCOc1cc2oc(=O)c3c(c2cc1Cl)CCC3	140		23.1 µM [rising, single point]
COc1ccc(C(=O)Nc2sc(C(=O)N(C)C)c(C)c2C#N)cc1[N+](=O)[O-]	-25	23.1 µM [falling, partial curve]	
COC(=O)C1=C(C)N(CC2CCCO2)C(=O)C1 (centres undefined)	1.5		
CCC1CCCCN1CCNS(=O)(=O)c1ccc2c(c1)CCN2C(C)=O (centres undefined)	6.23	29.1 µM [falling, single point]	
C=CCS(=O)(=O)c1nc2ccccc2s1	-4.88	29.1 µM [rising, single point]	
O=C(CCS(=O)(=O)Cc1ccccc1)Nc1nnc(C(F)(F)F)s1	-32.4	0.206 µM [falling, single point]	0.00411 µM [falling, full curve, poor fit]
COc1ccc(-c2ccc(SCC(=O)N3CCOCC3)nn2)cc1OC	-3.61	4.61 µM [rising, full curve, poor fit]	0.731 µM [falling, single point]
O=C(/C=C/c1cccc([N+](=O)[O-])c1)NCCSCc1ccco1	-35.6	29.1 µM [falling, single point]	1.64 µM [falling, full curve, poor fit]
CC(C)CSc1n[nH]c(=S)s1	11.4		
CN1CCCN(C(=O)c2cccc3ccccc23)CC1	26.9		0.184 µM [rising, full curve, poor fit]
COc1ccc(/C=C/C(=O)NC(=S)N2CCN(C)CC2)cc1	-0.331		
COc1ccccc1C(=O)N/N=C(\C)c1ccc(NC(=O)C2CC2)cc1	60.3	29.1 µM [rising, single point]	29.1 µM [rising, single point]
O=C(O)C1CCN(c2ccc([N+](=O)[O-])cc2[N+](=O)[O-])CC1	-14.4	3.26 µM [falling, full curve, poor fit]	
O=C(NCCc1ccccc1Cl)C1CCC(=O)N(C2CCCCCC2)C1 (centres undefined)	18.9		1.03 µM [rising, partial curve, poor fit]
OCC[C@@H]1C[C@H](O)[C@@H](O)[C@@]2(OCCc3ccccc32)O1	21	6.51 µM [rising, single point]	
